Results taken from paper PMC4215719.
Results are given in words; binding and its absence hold for the method and conditions named. Binding seen in cells or lysates may run through a third protein. Some results given as binding are weak or reduced against the parent protein; the word gives no strength.

Sequences of proteins named here, by UniProt entry; tags and fusion partners are left off. A change or cut given only in a name is not applied to a line headed by its entry. A line that says so, or that is headed by a name, gives the form on record, which may keep a tag or linker. Residues count along the entry.
UniProt P43407: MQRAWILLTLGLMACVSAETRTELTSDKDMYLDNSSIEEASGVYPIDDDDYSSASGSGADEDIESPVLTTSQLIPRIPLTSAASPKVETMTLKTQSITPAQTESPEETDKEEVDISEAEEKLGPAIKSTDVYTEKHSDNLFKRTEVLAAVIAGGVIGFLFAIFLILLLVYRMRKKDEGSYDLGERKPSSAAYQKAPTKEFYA
S2ED: extracellular core protein of murine syndecan-2 (E19-F141) fused at the N-terminus to GST: residues 19-141 of P43407
S2EDΔP124-F141 (S2ED lacking the adhesion regulatory domain), GST fusion: residues 19-123 of P43407

What was measured:
Assay in all cases: pull-down; GST or GST fusion proteins bound to glutathione-Sepharose beads, incubated 1 h with endothelial cell lysate (1% Triton X-100 in TBS, protease and phosphatase inhibitors), washed twice in TBS; western blot for CD148; only the target purified
[1] = target: S2ED: extracellular core protein of murine syndecan-2 (E19-F141) fused at the N-terminus to GST (murine) (UniProt P43407)
[2] = target: S2EDΔL73-G123 (GAG attachment domain and C-terminal adhesion regulatory domain only), GST fusion (murine) (UniProt P43407)
[3] = target: S2EDΔP124-F141 (S2ED lacking the adhesion regulatory domain), GST fusion (murine) (UniProt P43407)

binding [1]: binds
binding [2]: binds
binding [3]: no binding
B1: protein tyrosine phosphatase receptor CD148 (receptor, UniProt Q64455 29-1238)
chain: RQGQVLCAGAAPNPIFDIEAVVSPTSVLLTWKHNDSGASECRIENKMESNLTFPVKNQTSCNITGLSPGTSYTFSIISVTTNETLNKTITTEPWPVSDLHVTSVGVTQARLTWSNANGTASYRMLIEELTTHSSVNISGLKPGTNNSFAFPESNETQADFAVAEEVPDANGTKRIPVTNLSQLHKNSLVSVDPPSGQDPSLTEILLTDLKPDTQYNATIYSQAANGTEGQPRNKVFKTNSTQVSDVRAMNISASSMTLTWKSNYDGSRTSIVYKIHVAGGTHSVNQTVNKTEAIILGLSSSTLYNITVHPFLGQTEGTPGFLQVYTSPDQVSDFRVTNVSTRAIGLAWRSNDSKSFEIFIKQDGGEKHRNASTGNQSYMVEDLKPGTSYHFEIIPRGPDGTEGLSSTVNGSTDPSAVTDIRVVNISTTEMQLEWQNTDDASGYTYHLVLESKSGSIIRTNSSQKWITVGSLTPGTLYNVTIFPEVDQIQGISNSITQYTRPSSVSHIEVNTTTTTAAIRWKNEDAASASYAYSVLILKTGDGSNVTSNFTKDPSILIPELIPGVSYTVKILTQVGDGTTSLVPGWNLFCTEPEPVTSFHCEVVPKEPALVLKWACPFGMYTGFELGVRSDSWDNMTRLENCTSDDDTECRTEVAYLNFSTSYNISIATLSCGKMALPAQNICTTGITDPPTPDGSPNITSVSHNSVKVKFSGFEASHGPIKAYAVILTTGEAAQPSADVLKYTYEDFKRGASDTYVTYLIRIEEKGQSQGLSEVLNYEIDVGNQSTTLGYYNGRLEPLGSYRACVAGFTNITYNLQNDGLINGDESYVSFSPYSEAVFLPQDPGVICGAVFGCIFGALAITAVGGFIFWRKKRTDAKNNEVSFSQIKPKKSKLIRVENFEAYFKKQQADSNCGFAEEYEDLKLIGISLPKYTAEIAENRGKNRYNNVLPYDISRVKLSVQTHSTDDYINANYMPGYHSKKDFIATQGPLPNTLKDFWRMVWEKNVYAIVMLTKCVEQGRTKCEEYWPSKQAQDYGDITVAMTSEVVLPEWTIRDFVVKNMQNSESHPLRQFHFTSWPDHGVPDTTDLLINFRYLVRDYMKQIPPESPILVHCSAGVGRTGTFIAIDRLIYQIENENTVDVYGIVYDLRMHRPLMVQTEDQYVFLNQCVLDIIRAQKDSKVDLIYQNTTAMTIYENLEPVSMFGKTNGYIA
